Data taken from PubChem BioAssay AID2685 (National Center for Advancing Translational Sciences (NCATS), 2010).
The other results are listed elsewhere or left out. Shown are side measurements of this screen, not its main read-out; they come without a call. The list favours compounds with an active or inconclusive main result. Potencies come from curve fits of mixed quality, noted in brackets.

Assay: qHTS Assay for Lipid Storage Modulators in Drosophila S3 Cells;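 as to cell number change: cells counted by Cell Tracker Red CMTPX staining in the red channel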
Settings: BODIPY lipid droplet fluorescence, 18-24 h; for cell number change: measured here: cell count max response, cells fed with added oleic acid
Method in brief: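 Drosophila S3 cells got compounds at several concentrations plus oleic acid (400 uM solution). Laser-scanning cytometry with 488 nm excitation read lipid droplets at 500-530 nm and cells at 575-640 nm. Percent activity was relative to 20 uM Triacsin C.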

[1] = measured here: lipid fluorescence (Fed channel) AC50, cells fed with added oleic acid
[2] = measured here: cell number channel AC50, cells fed with added oleic acid

With `CC(C)(C)NS(=O)(=O)CC12CCC(CC1=O)C2(C)C` (stereo unspecified) the cell number change was -15.2%.
With `COCCNc1nnnc2c1sc1nc(N3CCOCC3)c3c(c12)CCCC3` the cell number change was -27.1% and the AC50 [1] was 23.1 µM [falling, single point].
For `O=C(Nc1ccc(S(=O)(=O)Nc2cnc3ccccc3n2)cc1)c1cccc(OC(F)F)c1`, the AC50 [1] was 5.17 µM [rising, single point].
In the case of `CC(=O)Oc1ccc(N2C(=O)C3C4C=CC(CO)(O4)C3C2=O)cc1` (stereo unspecified), the cell number change is reported as -77.4%, the AC50 [2] is reported as 29.1 µM [falling, single point] and the AC50 [1] is reported as 29.1 µM [falling, single point].
`O=C(COc1ccccc1F)Nc1ccc2c(c1)OCCO2` showed a cell number change of -10.5%.
In the case of `COC(=O)C1=C(C)NC(=O)/C1=C\c1cc(C)n(-c2cccc(C)c2)c1C`, the AC50 [2] is reported as 1.84 µM [rising, partial curve] and the AC50 [1] is reported as 2.91 µM [rising, partial curve].
In the case of `CN1C(=O)C(C(=O)Nc2ccccc2F)c2ccccc21` (stereo unspecified), the cell number change is reported as 84.4% and the AC50 [1] is reported as 0.146 µM [rising, full curve, poor fit].
For `COC(=O)COc1ccc(S(=O)(=O)NCCC2=CCCCC2)cc1`, the cell number change was -58.1%, the AC50 [2] was 16.4 µM [falling, partial curve, poor fit] and the AC50 [1] was 23.1 µM [falling, partial curve].
`Cc1ccc(NC(=O)c2ccc(S(=O)(=O)Nc3c(C)n(C)n(-c4ccccc4)c3=O)cc2)nc1` showed a cell number change of 4.19%.
For `O=C(Nc1cccc(C(=O)N2CCCCC2)c1)c1ccccc1Br`, the cell number change was 20.7%, the AC50 [2] was 7.31 µM [rising, single point] and the AC50 [1] was 29.1 µM [rising, single point].
Compound `COc1ccc2[nH]c(=O)c3c(c2c1)OC(C)(C)C=C3` has a cell number change of -16.6%.
With `O=C(Cc1nc2ccccc2[nH]1)N/N=C/c1ccccc1` the cell number change was -5.71% and the AC50 [1] was 0.0058 µM [rising, full curve, poor fit].
With `Cc1nnsc1C(=O)N/N=C/c1c(F)cccc1Cl` the AC50 [2] was 0.231 µM [rising, partial curve, poor fit].
For `Cc1nn(-c2ccccc2)c(C)c1C(=O)NCc1ccc(S(N)(=O)=O)cc1`, the cell number change was 2.56%.
With `CCOC(=O)N1CCC(NC(=O)c2ccc(NC(=O)C3CCCO3)cc2)CC1` (stereo unspecified) the cell number change was -28.4% and the AC50 [1] was 32.6 µM [falling, single point].
In the case of `COc1ccc(-c2c(NC(C)=O)n(C)c3ccccc3c2=O)cc1`, the cell number change is reported as 0.229% and the AC50 [1] is reported as 2.06 µM [falling, partial curve].
For `CCCCCNC(=O)c1cccc(S(=O)(=O)N2CC3(C)CC2CC(C)(C)C3)c1` (stereo unspecified), the cell number change was 16.2% and the AC50 [1] was 2.06 µM [rising, partial curve].
In the case of `CCN(CC)S(=O)(=O)c1ccc(C(=O)OCC(=O)Nc2sc3c(c2C#N)CCCCC3)cc1`, the cell number change is reported as -5.55% and the AC50 [1] is reported as 29.1 µM [falling, single point].
In the case of `N/C(Cc1cccs1)=N\OC(=O)COc1ccccc1Cl`, the cell number change is reported as 33.6% and the AC50 [2] is reported as 0.206 µM [rising, full curve, poor fit].
With `CCn1c(SCC(=O)N2CCC(C)CC2)nc2c1c(=O)n(C)c(=O)n2C` the AC50 [1] was 6.51 µM [rising, single point].
With `O=C(NC(=S)Nc1ccc(N2CCN(C(=O)c3ccccc3)CC2)cc1)c1cccs1` the cell number change was -31.4%, the AC50 [2] was 3.26 µM [falling, partial curve] and the AC50 [1] was 20.6 µM [falling, partial curve, poor fit].
For `O=C(c1cccs1)N(Cc1ccc(Cl)cc1)C1CCS(=O)(=O)C1` (stereo unspecified), the cell number change was 1.22%.
For `COc1cccc(NC(=O)C2C3C=CC4(O3)C2C(=O)N(CCN2CCCCC2)C4C(=O)NC2CCCCC2C)c1` (stereo unspecified), the AC50 [1] was 6.51 µM [falling, single point].
For `CCOCc1c(C(=O)N2CCN(CCOc3ccc(Cl)cc3)CC2)oc2ccccc12`, the cell number change was 97.2% and the AC50 [2] was 11.6 µM [rising, partial curve].
For `N/C(=N\N=C\c1ccc(O)c(O)c1)c1nonc1N`, the cell number change was -37.7%, the AC50 [2] was 29.1 µM [falling, single point] and the AC50 [1] was 16.4 µM [falling, single point].
With `CCCOc1ccc(C2NC(=O)NC(c3ccccc3)=C2C(C)=O)cc1OCC` (stereo unspecified) the cell number change was 82.5%, the AC50 [2] was 5.17 µM [rising, partial curve] and the AC50 [1] was 2.91 µM [rising, partial curve].
For `Nc1[nH]c(N=NC(=O)c2ccccc2O)c2ccccc12`, the cell number change was 52.1%, the AC50 [2] was 0.116 µM [rising, full curve] and the AC50 [1] was 0.103 µM [rising, full curve, poor fit].
For `O=C(Nc1ccncc1)c1ccccc1F`, the cell number change was -30.8% and the AC50 [2] was 13 µM [falling, partial curve].
With `CC1CCCN(C(=O)N2c3ccccc3Sc3ccccc32)C1` (stereo unspecified) the cell number change was -0.831% and the AC50 [1] was 0.0058 µM [falling, full curve, poor fit].
For `Cc1ccc(Nc2cc(C)nc(-c3ccccc3O)n2)cc1`, the AC50 [2] was 0.461 µM [rising, full curve] and the AC50 [1] was 0.517 µM [rising, full curve].
`Cc1ccc2nc(/C(C#N)=C\c3cc(O)ccc3[N+](=O)[O-])[nH]c2c1` showed a cell number change of -38.1%.
With `COc1cc(CN2CCc3c([nH]c4ccccc34)C2)cc(OC)c1` the cell number change was 24.4% and the AC50 [1] was 6.51 µM [rising, single point].
`CC12CCC(=O)N1C(C(=O)N1CCN(c3ccc(C(F)(F)F)cc3[N+](=O)[O-])CC1)CS2` (stereo unspecified) gave a cell number change of -15%.
In the case of `Cc1ccc(C(=O)N/C(=C\c2ccc(F)cc2)C(=O)NCCCn2ccnc2)cc1`, the cell number change is reported as -8.97%.
For `COc1cccc(NC(=O)CN(C)C(=O)c2cn(-c3ccccc3)nc2-c2cccs2)c1`, the cell number change was -12.7% and the AC50 [1] was 18.4 µM [falling, single point].
In the case of `COC(=O)c1c(NC(=O)C2SC(=NC3CCCCC3)C(C(N)=O)=C2N)sc2c1CCCC2` (stereo unspecified), the cell number change is reported as -32.5%, the AC50 [2] is reported as 29.1 µM [falling, single point] and the AC50 [1] is reported as 16.4 µM [falling, single point].
With `CC(C)(C)c1ccc2c(c1)C(=O)c1ccccc1C2=O` the cell number change was -21% and the AC50 [1] was 29.1 µM [falling, single point].
For `O=C(CC(=O)Nc1ccc(Cl)c(Cl)c1)N/N=C/c1ccc(O)cc1`, the cell number change was -6.42%, the AC50 [2] was 1.3 µM [rising, full curve] and the AC50 [1] was 1.46 µM [rising, full curve].
For `COc1ccccc1-c1noc(-c2ccccc2C(=O)N2CCOCC2)n1`, the cell number change was -0.427%, the AC50 [2] was 4.11 µM [rising, single point] and the AC50 [1] was 0.00517 µM [rising, full curve, poor fit].
With `Cc1nc2sccn2c(=O)c1S(=O)(=O)N1CCN(c2ccc(F)cc2)CC1` the cell number change was 12.4% and the AC50 [1] was 29.1 µM [rising, single point].
For `CN(C)c1ccc(C(CN)c2c[nH]c3ccccc23)cc1` (stereo unspecified), the cell number change was -2.21%, the AC50 [2] was 0.103 µM [rising, full curve, poor fit] and the AC50 [1] was 2.31 µM [falling, single point].
In the case of `CCCN1CCN(CCCNC(=O)CN2C(=O)c3cccnc3Oc3ccc(Cl)cc32)CC1`, the cell number change is reported as -1.18% and the AC50 [1] is reported as 0.651 µM [falling, partial curve, poor fit].
With `O=C(NCc1ccccc1)c1cc(-c2ccco2)on1` the cell number change was -7.23% and the AC50 [1] was 6.51 µM [rising, single point].
In the case of `COc1cc(C(=O)NCCC(=O)NCCN2CCCCCC2)cc(OC)c1OC`, the cell number change is reported as -3.92% and the AC50 [1] is reported as 7.31 µM [falling, single point].
With `Cc1ccc(S(=O)(=O)N2CCC(C(=O)OCC(=O)N3CCC(C)CC3)CC2)cc1C` the cell number change was 75% and the AC50 [2] was 18.4 µM [rising, single point].
With `CCOc1ccc(/C=C2\SC(N3CCc4ccccc4C3)=NC2=O)cc1` the cell number change was -27.4% and the AC50 [1] was 0.259 µM [falling, partial curve, poor fit].
With `Cc1ccc(S(=O)(=O)N2CCN(C(=O)C3CCCO3)CC2)cc1` (stereo unspecified) the cell number change was -19.4% and the AC50 [2] was 0.103 µM [falling, full curve, poor fit].
With `Cc1ccc(SCC(=O)NCCSCc2ccccc2)cc1` the cell number change was 148%, the AC50 [2] was 2.06 µM [rising, full curve] and the AC50 [1] was 3.26 µM [rising, full curve].
For `O=C(O)Cc1cn(Cc2ccc(F)cc2)c2ccccc12`, the cell number change was -51.6% and the AC50 [2] was 4.11 µM [falling, partial curve].
For `NC(=O)CC[C@@H]1NC(=O)[C@H](CO)NC(=O)c2cc([N+](=O)[O-])cc(I)c2NCCCC[C@@H](C(N)=O)NC(=O)[C@H](Cc2ccc(O)cc2)NC1=O`, the cell number change was -10.9% and the AC50 [1] was 0.00651 µM [falling, full curve, poor fit].
With `O=C(NCCS(=O)(=O)NCc1ccccn1)c1ccccc1` the AC50 [1] was 0.231 µM [rising, full curve, poor fit].
With `COc1ccc(C(C)N2CC34C=CC(O3)C(C(=O)O)C4C2=O)cc1` (stereo unspecified) the cell number change was -89.4% and the AC50 [2] was 29.1 µM [falling, single point].
With `CCOc1ccc(NC(=O)CN2CCN(CC(=O)Nc3ccc(OC)cc3OC)CC2)cc1` the AC50 [2] was 2.91 µM [rising, single point] and the AC50 [1] was 29.1 µM [rising, single point].
With `O=C(O)COc1ccc2c(c1)O/C(=C\c1cccs1)C2=O` the cell number change was -21.7% and the AC50 [1] was 1.84 µM [falling, full curve, poor fit].
With `COc1cc2c(cc1OC)C(C(=O)Nc1cccc(C)n1)C(c1cccnc1)N(C)C2=O` (stereo unspecified) the cell number change was 4.16% and the AC50 [1] was 29.1 µM [falling, single point].
With `C[C@H](OC(=O)NCc1ccc(C(F)(F)F)cc1)[C@@H]1O[C@@]2(C)CCC[C@@H]1O2` the cell number change was -4.93% and the AC50 [1] was 8.2 µM [falling, partial curve].
In the case of `COc1cccc(N(CC(=O)NC2CCCCC2)C(=O)CCCC(=O)Nc2ccccn2)c1`, the cell number change is reported as 24.8%.
